Data on four molecules can be found in publication PMC6220262.

Amino acid sequences for entries named in this document (tags omitted).
UniProt P41208: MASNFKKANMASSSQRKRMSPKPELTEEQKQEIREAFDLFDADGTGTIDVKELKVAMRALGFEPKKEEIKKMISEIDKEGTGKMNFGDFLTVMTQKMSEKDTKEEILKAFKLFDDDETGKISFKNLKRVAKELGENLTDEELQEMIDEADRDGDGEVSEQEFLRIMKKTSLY
UniProt P53350: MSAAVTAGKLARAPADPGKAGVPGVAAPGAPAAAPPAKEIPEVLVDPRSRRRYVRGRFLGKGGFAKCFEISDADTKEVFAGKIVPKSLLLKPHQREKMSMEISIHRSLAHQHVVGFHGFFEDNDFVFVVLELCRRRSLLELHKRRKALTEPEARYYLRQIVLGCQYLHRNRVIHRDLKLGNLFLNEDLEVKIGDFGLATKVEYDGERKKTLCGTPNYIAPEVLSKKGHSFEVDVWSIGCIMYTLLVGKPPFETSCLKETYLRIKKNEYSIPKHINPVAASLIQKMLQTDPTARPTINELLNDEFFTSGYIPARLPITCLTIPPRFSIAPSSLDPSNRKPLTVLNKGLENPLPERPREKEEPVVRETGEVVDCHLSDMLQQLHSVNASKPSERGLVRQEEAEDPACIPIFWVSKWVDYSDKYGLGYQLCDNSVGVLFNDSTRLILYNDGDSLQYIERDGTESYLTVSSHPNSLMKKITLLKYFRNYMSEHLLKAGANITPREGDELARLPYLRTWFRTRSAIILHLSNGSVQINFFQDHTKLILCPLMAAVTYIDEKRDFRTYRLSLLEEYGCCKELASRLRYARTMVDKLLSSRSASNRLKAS

Results are given in words; binding and its absence hold for the method and conditions named. Binding seen in cells or lysates may run through a third protein. Some binding calls cover weakened binding; strength is not graded here. For some of these results: Where a sequence is shown, tags or fusion partners need not be part of it.

For experiment [1], the target named is T1, human CDC20B (cell division cycle 20B), GFP fusion protein (human) (UniProt Q86Y33).
T1 sequence: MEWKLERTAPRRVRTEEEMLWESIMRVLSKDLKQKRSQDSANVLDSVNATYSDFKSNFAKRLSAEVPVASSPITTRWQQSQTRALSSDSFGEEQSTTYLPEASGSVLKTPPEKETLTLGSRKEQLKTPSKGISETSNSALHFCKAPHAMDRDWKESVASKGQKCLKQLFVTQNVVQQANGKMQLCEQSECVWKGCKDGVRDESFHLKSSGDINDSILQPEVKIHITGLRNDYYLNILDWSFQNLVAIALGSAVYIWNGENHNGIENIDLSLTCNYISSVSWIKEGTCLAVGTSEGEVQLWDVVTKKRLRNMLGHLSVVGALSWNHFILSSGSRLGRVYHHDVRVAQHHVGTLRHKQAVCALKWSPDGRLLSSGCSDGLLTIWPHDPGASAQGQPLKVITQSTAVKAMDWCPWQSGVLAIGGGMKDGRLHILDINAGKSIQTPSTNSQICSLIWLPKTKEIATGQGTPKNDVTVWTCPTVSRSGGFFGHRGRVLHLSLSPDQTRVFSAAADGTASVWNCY
Kind of experiment: co-IP; asynchronous HEK cells transfected with the constructs; lysis in 0.025 M Tris, 0.15 M NaCl, 0.001 M EDTA, 1% NP-40, 5% glycerol, pH 7.4; Pierce co-immunoprecipitation kit, columns coupled with anti-GFP or anti-c-myc (9E10), overnight at 4 °C; immunoblot with anti-CDC20B or anti-c-myc; reciprocal. Background: A western blot detects proteins with antibodies after separation by electrophoresis.

Experiment [2] concerns the target Centrin2 (human (endogenous in HAECs)) (UniProt P41208). The experiment in a line: proximity ligation; fully differentiated HAECs dissociated and cytocentrifuged onto slides, fixed (methanol for Centrin2; 4% paraformaldehyde and Triton X-100 for acetylated α-tubulin); primary antibodies 2 h at room temperature; Duolink Red kit.

On to “human PLK1, myc-tagged (from UniProt P53350 1-603) (enzyme)”, for which the binding result in experiment [1] is given as “binds”.

B1: human SPAG5 (Astrin), myc-tagged (protein, UniProt Q96R06 1-1193)
chain: MWRVKKLSLSLSPSPQTGKPSMRTPLRELTLQPGALTNSGKRSPACSSLTPSLCKLGLQEGSNNSSPVDFVNNKRTDLSSEHFSHSSKWLETCQHESDEQPLDPIPQISSTPKTSEEAVDPLGNYMVKTIVLVPSPLGQQQDMIFEARLDTMAETNSISLNGPLRTDDLVREEVAPCMGDRFSEVAAVSEKPIFQESPSHLLEESPPNPCSEQLHCSKESLSSRTEAVREDLVPSESNAFLPSSVLWLSPSTALAADFRVNHVDPEEEIVEHGAMEEREMRFPTHPKESETEDQALVSSVEDILSTCLTPNLVEMESQEAPGPAVEDVGRILGSDTESWMSPLAWLEKGVNTSVMLENLRQSLSLPSMLRDAAIGTTPFSTCSVGTWFTPSAPQEKSTNTSQTGLVGTKHSTSETEQLLCGRPPDLTALSRHDLEDNLLSSLVILEVLSRQLRDWKSQLAVPHPETQDSSTQTDTSHSGITNKLQHLKESHEMGQALQQARNVMQSWVLISKELISLLHLSLLHLEEDKTTVSQESRRAETLVCCCFDLLKKLRAKLQSLKAEREEARHREEMALRGKDAAEIVLEAFCAHASQRISQLEQDLASMREFRGLLKDAQTQLVGLHAKQEELVQQTVSLTSTLQQDWRSMQLDYTTWTALLSRSRQLTEKLTVKSQQALQERDVAIEEKQEVSRVLEQVSAQLEECKGQTEQLELENSRLATDLRAQLQILANMDSQLKELQSQHTHCAQDLAMKDELLCQLTQSNEEQAAQWQKEEMALKHMQAELQQQQAVLAKEVRDLKETLEFADQENQVAHLELGQVECQLKTTLEVLRERSLQCENLKDTVENLTAKLASTIADNQEQDLEKTRQYSQKLGLLTEQLQSLTLFLQTKLKEKTEQETLLLSTACPPTQEHPLPNDRTFLGSILTAVADEEPESTPVPLLGSDKSAFTRVASMVSLQPAETPGMEESLAEMSIMTTELQSLCSLLQESKEEAIRTLQRKICELQARLQAQEEQHQEVQKAKEADIEKLNQALCLRYKNEKELQEVIQQQNEKILEQIDKSGELISLREEVTHLTRSLRRAETETKVLQEALAGQLDSNCQPMATNWIQEKVWLSQEVDKLRVMFLEMKNEKEKLMIKFQSHRNILEENLRRSDKELEKLDDIVQHIYKTLLSIPEVVRGCKELQGLLEFLS
Turning to B1, the binding result in experiment [1] is reported as “binds”.

B2: human DEUP1 (Deuterosome assembly protein 1), myc-tagged (protein, UniProt Q05D60 1-604)
chain: MENQAHNTMGTSPCEAELQELMEQIDIMVSNKKMDWERKMRALETRLDLRDQELANAQTCLDQKGQEVGLLRQKLDSLEKCNLAMTQNYEGQLQSLKAQFSKLTNNFEKLRLHQMKQNKVPRKELPHLKEEIPFELSNLNQKLEEFRAKSREWDKQEILYQTHLISLDAQQKLLSEKCNQFQKQAQSYQTQLNGKKQCLEDSSSEIPRLICDPDPNCEINERDEFIIEKLKSAVNEIALSRNKLQDENQKLLQELKMYQRQCQAMEAGLSEVKSELQSRDDLLRIIEMERLQLHRELLKIGECQNAQGNKTRLESSYLPSIKEPERKIKELFSVMQDQPNHEKELNKIRSQLQQVEEYHNSEQERMRNEISDLTEELHQKEITIATVTKKAALLEKQLKMELEIKEKMLAKQKVSDMKYKAVRTENTHLKGMMGDLDPGEYMSMDFTNREQSRHTSINKLQYENERLRNDLAKLHVNGKSTWTNQNTYEETGRYAYQSQIKVEQNEERLSHDCEPNRSTMPPLPPSTFQAKEMTSPLVSDDDVFPLSPPDMSFPASLAAQHFLLEEEKRAKELEKLLNTHIDELQRHTEFTLNKYSKLKQNRHI
As for B2, in experiment [1], the binding result was “binds”.

B3: CDC20B, endogenous in human airway epithelial cells (protein, UniProt Q86Y33 1-519)
chain: T1 sequence
Consider B3, for which the binding result in experiment [2] is “binds”.
